Laboratory results as given in the supplement of paper PMC8728848.
The list shows a part of the results.

How the values were obtained:
Assay in all cases: glycan array binding signal (z-score within array); higher = stronger binding
Conditions in all cases: glycan notation: IUPAC condensed, linker removed
[1] = biological target: GalNAc(b1-4)GlcNAc(b1-2)Man
Outline: (§1)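 Glycan array data came from 3228 arrays in the Consortium for Functional Glycomics database, and only arrays with an available protein sequence were kept. Glycan names were put into IUPAC-condensed notation, and columns mapping to the same glycan were averaged. The binding signal is a within-array Z-score, averaged across arrays of one protein sequence run at different concentrations or buffers and across linkers. A negative Z-score can be read as non-binding.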

[2] = biological target: GalNAc(b1-4)GlcNAc(b1-2)Man(a1-3)[GalNAc(b1-4)GlcNAc(b1-2)Man(a1-6)]Man(b1-4)GlcNAc(b1-4)GlcNAc
Outline: as §1

[3] = biological target: GalNAc(b1-4)GlcNAc(b1-3)GalNAc(b1-4)GlcNAc
Outline: as §1

[4] = biological target: GalNAc(b1-4)GlcNAc6S
Outline: as §1

[5] = biological target: GalNAc(b1-6)GalNAc
Outline: as §1

[6] = biological target: GalNAc3S(b1-4)GlcNAc
Outline: as §1

[7] = biological target: GalNAc3S(b1-4)GlcNAc3S
Outline: as §1

[8] = biological target: GalNAc3S(b1-4)[Fuc(a1-3)]GlcNAc
Outline: as §1

[9] = biological target: GalNAc4S6S(b1-4)GlcNAc
Outline: as §1

[10] = biological target: GalNAc6S(b1-4)GlcNAc
Outline: as §1

[11] = biological target: Glc(a1-4)Glc
Outline: as §1

[12] = biological target: Glc(a1-4)Glc(a1-4)Glc(a1-4)Glc
Outline: as §1

[13] = biological target: Glc(a1-6)Glc(a1-6)Glc
Outline: as §1

[14] = biological target: Glc(a1-6)Glc(a1-6)Glc(a1-6)Glc
Outline: as §1

[15] = biological target: Glc(b1-4)Glc
Outline: as §1

[16] = biological target: Glc(b1-6)Glc
Outline: as §1

[17] = biological target: GlcA(b1-3)Gal
Outline: as §1

[18] = biological target: GlcA(b1-3)GlcNAc
Outline: as §1

[19] = biological target: GlcA(b1-6)Gal
Outline: as §1

[20] = biological target: GlcA3S(b1-3)Gal(b1-4)GlcNAc(b1-2)Man
Outline: as §1

[21] = biological target: GlcA3S(b1-3)Gal(b1-4)GlcNAc(b1-3)Gal(b1-4)Glc
Outline: as §1

[22] = biological target: GlcNAc(a1-3)Gal(b1-4)GlcNAc
Outline: as §1

[23] = biological target: GlcNAc(a1-4)Gal(b1-3)GlcNAc
Outline: as §1

[24] = biological target: GlcNAc(a1-4)Gal(b1-4)GalNAc
Outline: as §1

[25] = biological target: GlcNAc(a1-4)Gal(b1-4)GlcNAc
Outline: as §1

[26] = biological target: GlcNAc(a1-4)Gal(b1-4)GlcNAc(b1-3)Gal(b1-4)Glc
Outline: as §1

[27] = biological target: GlcNAc(a1-4)Gal(b1-4)GlcNAc(b1-3)Gal(b1-4)GlcNAc
Outline: as §1

[28] = biological target: GlcNAc(a1-4)Gal(b1-4)GlcNAc(b1-3)Gal(b1-4)GlcNAc(b1-3)Gal(b1-4)GlcNAc
Outline: as §1

[29] = biological target: GlcNAc(a1-4)Gal(b1-4)GlcNAc(b1-3)Gal(b1-4)[Fuc(a1-3)]GlcNAc(b1-3)Gal(b1-4)[Fuc(a1-3)]GlcNAc
Outline: as §1

[30] = biological target: GlcNAc(a1-6)Gal(b1-4)GlcNAc
Outline: as §1

[31] = biological target: GlcNAc(b1-2)Gal(b1-3)GalNAc
Outline: as §1

[32] = biological target: GlcNAc(b1-2)Man(a1-3)[GlcNAc(b1-2)Man(a1-6)]Man(b1-4)GlcNAc(b1-4)GlcNAc
Outline: as §1

[33] = biological target: GlcNAc(b1-2)Man(a1-3)[GlcNAc(b1-2)Man(a1-6)]Man(b1-4)GlcNAc(b1-4)[Fuc(a1-6)]GlcNAc
Outline: as §1

[34] = biological target: GlcNAc(b1-2)Man(a1-3)[GlcNAc(b1-4)][GlcNAc(b1-2)Man(a1-6)]Man(b1-4)GlcNAc(b1-4)GlcNAc
Outline: as §1

[35] = biological target: GlcNAc(b1-2)Man(a1-3)[GlcNAc(b1-4)][GlcNAc(b1-2)Man(a1-6)]Man(b1-4)GlcNAc(b1-4)[Fuc(a1-6)]GlcNAc
Outline: as §1

[36] = biological target: GlcNAc(b1-2)[GlcNAc(b1-4)]Man(a1-3)[GlcNAc(b1-2)Man(a1-6)]Man(b1-4)GlcNAc(b1-4)GlcNAc
Outline: as §1

[37] = biological target: GlcNAc(b1-2)[GlcNAc(b1-4)]Man(a1-3)[GlcNAc(b1-4)][GlcNAc(b1-2)Man(a1-6)]Man(b1-4)GlcNAc(b1-4)GlcNAc
Outline: as §1

[38] = biological target: GlcNAc(b1-2)[GlcNAc(b1-4)]Man(a1-3)[GlcNAc(b1-4)][GlcNAc(b1-2)[GlcNAc(b1-6)]Man(a1-6)]Man(b1-4)GlcNAc(b1-4)GlcNAc
Outline: as §1

[39] = biological target: GlcNAc(b1-2)[GlcNAc(b1-4)]Man(a1-3)[GlcNAc(b1-4)][GlcNAc(b1-2)[GlcNAc(b1-6)]Man(a1-6)]Man(b1-4)GlcNAc(b1-4)[Fuc(a1-6)]GlcNAc
Outline: as §1

[40] = biological target: GlcNAc(b1-2)[GlcNAc(b1-6)]Man(a1-6)[GlcNAc(b1-2)Man(a1-3)]Man(b1-4)GlcNAc(b1-4)GlcNAc
Outline: as §1

[41] = biological target: GlcNAc(b1-2)[GlcNAc(b1-6)]Man(a1-6)[GlcNAc(b1-2)Man(a1-3)]Man(b1-4)GlcNAc(b1-4)[Fuc(a1-6)]GlcNAc
Outline: as §1

[42] = biological target: GlcNAc(b1-2)[GlcNAc(b1-6)]Man(a1-6)[GlcNAc(b1-4)][GlcNAc(b1-2)Man(a1-3)]Man(b1-4)GlcNAc(b1-4)GlcNAc
Outline: as §1

[43] = biological target: GlcNAc(b1-3)Fuc
Outline: as §1

[44] = biological target: GlcNAc(b1-3)Gal
Outline: as §1

[45] = biological target: GlcNAc(b1-3)Gal(b1-3)GalNAc
Outline: as §1

B1: ArathEULS3 TAP (Arabidopsis thaliana) (protein)
chain: IDENLYFQGGSMDEKTTGWRGGHVVEGLAGELEQLRARLEHHPQGQREPGGGGSLEITSLYKKAGFMEHHHQHHRHHQRDDGEDDRQSFGVPPPHVDAPPQPHGLYQSQPHFDPYAPTPQAPAPYRSETQFEPHAPPPYRSEPYFETPAPPPSFGHVSHVGHQSPNESYPPEHHRYGGYQQPSNSLLESHGDHSGVTHVAHHSSNQPQSSSGVYHKPDENRLPDNLAGLAGRATVKVYSKAEPNYNLTIRDGKVILAPADPSDEAQHWYKDEKYSTKVKDADGHPCFALVNKATGEAMKHSVGATHPVHLIRYVPDKLDESVLWTESKDFGDGYRTIRMVNNTRLNVDAYHGDSKSGGVRDGTTIVLWDWNKGDNQLWKIFPF
glycan array binding signal (z-score) [1]: -1.75 | glycan array binding signal (z-score) [2]: 0.543 | glycan array binding signal (z-score) [3]: 0.218 | glycan array binding signal (z-score) [4]: 1.07 | glycan array binding signal (z-score) [5]: 0.37 | glycan array binding signal (z-score) [6]: -0.134 | glycan array binding signal (z-score) [7]: -0.609 | glycan array binding signal (z-score) [8]: -1.44 | glycan array binding signal (z-score) [9]: -1.01 | glycan array binding signal (z-score) [10]: 0.057 | glycan array binding signal (z-score) [11]: -0.491 | glycan array binding signal (z-score) [12]: -0.904 | glycan array binding signal (z-score) [13]: -0.209 | glycan array binding signal (z-score) [14]: 1.67 | glycan array binding signal (z-score) [15]: 0.113 | glycan array binding signal (z-score) [16]: -1.73 | glycan array binding signal (z-score) [17]: -0.233 | glycan array binding signal (z-score) [18]: -0.1 | glycan array binding signal (z-score) [19]: 1.39 | glycan array binding signal (z-score) [20]: -1 | glycan array binding signal (z-score) [21]: -1.9 | glycan array binding signal (z-score) [22]: -1.28 | glycan array binding signal (z-score) [23]: 0.727 | glycan array binding signal (z-score) [24]: -1.28 | glycan array binding signal (z-score) [25]: 0.191 | glycan array binding signal (z-score) [26]: -1.18 | glycan array binding signal (z-score) [27]: 1.79 | glycan array binding signal (z-score) [28]: 0.236 | glycan array binding signal (z-score) [29]: 0.794 | glycan array binding signal (z-score) [30]: -0.446 | glycan array binding signal (z-score) [31]: 0.069 | glycan array binding signal (z-score) [32]: -0.769 | glycan array binding signal (z-score) [33]: -0.928 | glycan array binding signal (z-score) [34]: -2.43 | glycan array binding signal (z-score) [35]: 0.473 | glycan array binding signal (z-score) [36]: 1.43 | glycan array binding signal (z-score) [37]: -0.62 | glycan array binding signal (z-score) [38]: -0.38 | glycan array binding signal (z-score) [39]: -0.659 | glycan array binding signal (z-score) [40]: -1.47 | glycan array binding signal (z-score) [41]: 0.323 | glycan array binding signal (z-score) [42]: -0.975 | glycan array binding signal (z-score) [43]: -0.796 | glycan array binding signal (z-score) [44]: -1 | glycan array binding signal (z-score) [45]: 1.14
